{"source": "patent US7635709B2", "about": "“Compositions and methods for bowel care in individuals with chronic intestinal pseudo-obstruction” (priority 2002, dated 2009)", "system": "persons with SCI", "experiment": "Bowel evacuation score by video fluoroscopy after rectal barium-oatmeal paste in thirteen SCI subjects (Example 3)", "assay_type": "in vivo, human", "conditions": "IV bolus 2 mg neostigmine, with or without 0.4 mg glycopyrrolate; 13 SCI subjects", "description": "Thirteen (13) persons with SCI (5 quadriplegics, 8 paraplegics) with a mean age of 46 years (range 25-69) and mean duration of injury of 16 years (range 1-31) were treated. None of the subjects had known heart disease and/or history of arrhythmias.\nOn separate days, subjects were given by IV bolus either (i) 2 mg neostigmine alone, (ii) a combination of 2 mg neostigmine and 0.4 mg glycopyrrolate, or (iii) normal saline. Subjects were blinded to the type of infusion being delivered. The effect of these infusions on bowel evacuation was assessed semi-quantitatively on a scale of 0 (no evacuation) to 4+ (complete evacuation) using video fluoroscopy after rectal instillation of a barium-oatmeal paste having a consistency similar to that of stool. Blood pressure, heart rate and other vital signs were monitored in each subject. In addition, airway resistances were determined in each subject using the forced oscillation technique (as described, for example, in Goldman, Pulm. Pharmacol. Ther., 14(5):341-350, 2001). Total airway resistance was determined using 5 Hz forced oscillations, and central airway resistance was determined using 20 Hz forced oscillations.\nThis response received a 0 (zero) bowel evacuation score. FIGS. 1B-1E show progressively increasing bowel evacuation responses in different subjects. […]", "note": "Some entries share one result that the patent states for a list of compounds.", "data": [{"smiles": "CN(C)C(=O)Oc1cccc([N+](C)(C)C)c1", "note": "[neostigmine]", "values": [{"measurement": "time of evacuation post infusion, range", "result": "5 to 20", "unit": "min"}]}]}
